PMC12403488
These are yes or no findings as the source states them, for the method shown. In cells and extracts the contact can be indirect. Some binding calls cover weakened binding; strength is not graded here.

Columns and labels:
[1] = biological target: T1, stimulator of interferon gene (STING) (human (endogenous in HMC3)), Q86WV6; test: co-IP; lysate of OGD/R-treated HMC3 cells in Native Lysis Buffer; anti-STING antibody or anti-IgG antibody conjugated to AminoLink Coupling Resin, 2 h; western blot; settings: remark: other sources report otherwise
[2] = biological target: T1, stimulator of interferon gene (STING) …; test: proximity ligation; Duolink In Situ; OGD/R-treated and control HMC3 cells, fixed with 4% PFA, permeabilised with 0.1% Triton X-100; STING antibody and RHBDF2 antibody; confocal microscope; settings: remark: other sources report otherwise

B1: Rhomboid 5 homolog 2 (RHBDF2), Q6PJF5 1-856 (protein)
chain: MASADKNGGSVSSVSSSRLQSRKPPNLSITIPPPEKETQAPGEQDSMLPEGFQNRRLKKSQPRTWAAHTTACPPSFLPKRKNPAYLKSVSLQEPRSRWQESSEKRPGFRRQASLSQSIRKGAAQWFGVSGDWEGQRQQWQRRSLHHCSMRYGRLKASCQRDLELPSQEAPSFQGTESPKPCKMPKIVDPLARGRAFRHPEEMDRPHAPHPPLTPGVLSLTSFTSVRSGYSHLPRRKRMSVAHMSLQAAAALLKGRSVLDATGQRCRVVKRSFAFPSFLEEDVVDGADTFDSSFFSKEEMSSMPDDVFESPPLSASYFRGIPHSASPVSPDGVQIPLKEYGRAPVPGPRRGKRIASKVKHFAFDRKKRHYGLGVVGNWLNRSYRRSISSTVQRQLESFDSHRPYFTYWLTFVHVIITLLVICTYGIAPVGFAQHVTTQLVLRNKGVYESVKYIQQENFWVGPSSIDLIHLGAKFSPCIRKDGQIEQLVLRERDLERDSGCCVQNDHSGCIQTQRKDCSETLATFVKWQDDTGPPMDKSDLGQKRTSGAVCHQDPRTCEEPASSGAHIWPDDITKWPICTEQARSNHTGFLHMDCEIKGRPCCIGTKGSCEITTREYCEFMHGYFHEEATLCSQVHCLDKVCGLLPFLNPEVPDQFYRLWLSLFLHAGVVHCLVSVVFQMTILRDLEKLAGWHRIAIIFILSGITGNLASAIFLPYRAEVGPAGSQFGLLACLFVELFQSWPLLERPWKAFLNLSAIVLFLFICGLLPWIDNIAHIFGFLSGLLLAFAFLPYITFGTSDKYRKRALILVSLLAFAGLFAALVLWLYIYPINWPWIEHLTCFPFTSRFCEKYELDQVLH
binding [1]: binds | binding [2]: binds
